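Malaria parasite (P. falciparum) lines kept in red blood cells; parasite DNA is measured by SYBR Green fluorescence after lysis, 72 h after compound addition.
Each compound was titrated across a series from about 0.000037 to 29 µM.
The number is the fitted AC50, the concentration giving a half-maximal change in signal; a lower value means higher potency, whether the curve shows a decrease or an increase.
Calls follow the curve class and fit quality: every row here is inconclusive, covering signal-raising curves and weak, poorly fitted, partial or highest-dose-only inhibition curves.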

Values are in µM.
All entries here are filed as inconclusive.
These entries are mostly ones the record files as inconclusive; other results of the assay are not listed here.
Potencies fitted to partial, single-point or poorly fitting curves are rough.

structure | condition | fitted potency (µM) | curve
O=C(c1cc2ccccc2o1)N1CCN(Cc2ccccc2)CC1 | ATS189 | 10 | inhibitor, single point
O=C(c1cc2ccccc2o1)N1CCN(Cc2ccccc2)CC1 | CP237 | 12.59 | inhibitor, partial curve
O=C(c1cc2ccccc2o1)N1CCN(Cc2ccccc2)CC1 | CP203 | 10.69 | inhibitor, single point
O=C(c1cc2ccccc2o1)N1CCN(Cc2ccccc2)CC1 | PC26 | 6.012 | inhibitor, partial curve
O=C(c1cc2ccccc2o1)N1CCN(Cc2ccccc2)CC1 | CP268 | 6.012 | inhibitor, partial curve
O=C(c1cc2ccccc2o1)N1CCN(Cc2ccccc2)CC1 | TAB113 | 14.13 | inhibitor, single point
O=C(c1cc2ccccc2o1)N1CCN(Cc2ccccc2)CC1 | ATS95 | 17.78 | inhibitor, single point
O=C(c1cc2ccccc2o1)N1CCN(Cc2ccccc2)CC1 | CP217 | 8.912 | inhibitor, single point
O=C(c1cc2ccccc2o1)N1CCN(Cc2ccccc2)CC1 | DFO2036 | 11.22 | inhibitor, single point
O=C(c1cc2ccccc2o1)N1CCN(Cc2ccccc2)CC1 | CP325 | 8.492 | inhibitor, partial curve, poor fit
O=C(c1cc2ccccc2o1)N1CCN(Cc2ccccc2)CC1 | CP250 | 8.912 | inhibitor, partial curve
O=C(c1cc2ccccc2o1)N1CCN(Cc2ccccc2)CC1 | SC27B | 17.78 | inhibitor, single point
O=C(c1cc2ccccc2o1)N1CCN(Cc2ccccc2)CC1 | CP262 | 6.746 | inhibitor, partial curve
O=C(c1cc2ccccc2o1)N1CCN(Cc2ccccc2)CC1 | CP252 | 8.912 | inhibitor, single point
O=C(c1cc2ccccc2o1)N1CCN(Cc2ccccc2)CC1 | CP201 | 4.776 | inhibitor, partial curve
O=C(c1cc2ccccc2o1)N1CCN(Cc2ccccc2)CC1 | DIV14 | 19.01 | inhibitor, single point
O=C(c1cc2ccccc2o1)N1CCN(Cc2ccccc2)CC1 | CP269 | 16.94 | inhibitor, partial curve, poor fit
O=C(c1cc2ccccc2o1)N1CCN(Cc2ccccc2)CC1 | ECU | 11.22 | inhibitor, single point
O=C(c1cc2ccccc2o1)N1CCN(Cc2ccccc2)CC1 | CP286 | 12.59 | inhibitor, single point
O=C(c1cc2ccccc2o1)N1CCN(Cc2ccccc2)CC1 | 3D7 | 14.13 | inhibitor, single point
O=C(c1cc2ccccc2o1)N1CCN(Cc2ccccc2)CC1 | CP185 | 14.13 | inhibitor, single point
O=C(c1cc2ccccc2o1)N1CCN(Cc2ccccc2)CC1 | CP191 | 11.22 | inhibitor, single point
O=C(c1cc2ccccc2o1)N1CCN(Cc2ccccc2)CC1 | PAD | 17.78 | inhibitor, single point
O=C(c1cc2ccccc2o1)N1CCN(Cc2ccccc2)CC1 | CP211 | 12 | inhibitor, partial curve
CC(O)(P(=O)(O)O)P(=O)(O)O | CP325 | 16.94 | inhibitor, partial curve, poor fit
CC(O)(P(=O)(O)O)P(=O)(O)O | GB4 | 19.01 | inhibitor, single point
CC(O)(P(=O)(O)O)P(=O)(O)O | DIV14 | 19.01 | inhibitor, single point
CC(O)(P(=O)(O)O)P(=O)(O)O | CP305 | 19.01 | inhibitor, single point
CC(O)(P(=O)(O)O)P(=O)(O)O | CP268 | 12 | inhibitor, partial curve, poor fit
CC(O)(P(=O)(O)O)P(=O)(O)O | CP291 | 19.01 | inhibitor, single point
CC(O)(P(=O)(O)O)P(=O)(O)O | CP297 | 0.0005 | inhibitor
CC(O)(P(=O)(O)O)P(=O)(O)O | DIV17 | 19.01 | inhibitor, single point
OC(CCN1CCCCC1)(c1ccccc1)C1CCCCC1 (centres unmarked) | CP335 | 10.69 | inhibitor, partial curve, poor fit
COc1ccc(S(=O)(=O)N2c3ccc(Cl)cc3[C@](O)(c3ccccc3Cl)[C@@H]2C(=O)N2CCC[C@H]2C(N)=O)cc1OC | P93_24 | 10 | inhibitor, single point
COc1ccc(S(=O)(=O)N2c3ccc(Cl)cc3[C@](O)(c3ccccc3Cl)[C@@H]2C(=O)N2CCC[C@H]2C(N)=O)cc1OC | AS120 | 14.13 | inhibitor, single point
COc1ccc(S(=O)(=O)N2c3ccc(Cl)cc3[C@](O)(c3ccccc3Cl)[C@@H]2C(=O)N2CCC[C@H]2C(N)=O)cc1OC | DIV17 | 10.69 | inhibitor, partial curve
COc1ccc(S(=O)(=O)N2c3ccc(Cl)cc3[C@](O)(c3ccccc3Cl)[C@@H]2C(=O)N2CCC[C@H]2C(N)=O)cc1OC | CP237 | 11.22 | inhibitor, single point
COc1ccc(S(=O)(=O)N2c3ccc(Cl)cc3[C@](O)(c3ccccc3Cl)[C@@H]2C(=O)N2CCC[C@H]2C(N)=O)cc1OC | SC27B | 15.85 | inhibitor, single point
COc1ccc(S(=O)(=O)N2c3ccc(Cl)cc3[C@](O)(c3ccccc3Cl)[C@@H]2C(=O)N2CCC[C@H]2C(N)=O)cc1OC | ECU | 15.85 | inhibitor, single point
COc1ccc(S(=O)(=O)N2c3ccc(Cl)cc3[C@](O)(c3ccccc3Cl)[C@@H]2C(=O)N2CCC[C@H]2C(N)=O)cc1OC | PC15 | 10 | inhibitor, single point
COc1ccc(S(=O)(=O)N2c3ccc(Cl)cc3[C@](O)(c3ccccc3Cl)[C@@H]2C(=O)N2CCC[C@H]2C(N)=O)cc1OC | TAB165 | 11.22 | inhibitor, single point
COc1ccc(S(=O)(=O)N2c3ccc(Cl)cc3[C@](O)(c3ccccc3Cl)[C@@H]2C(=O)N2CCC[C@H]2C(N)=O)cc1OC | AA1029 | 12.59 | inhibitor, single point
COc1ccc(S(=O)(=O)N2c3ccc(Cl)cc3[C@](O)(c3ccccc3Cl)[C@@H]2C(=O)N2CCC[C@H]2C(N)=O)cc1OC | N140 | 10 | inhibitor, single point
CN(C)C/C=C(/c1ccc(Br)cc1)c1cccnc1 | CP291 | 12 | inhibitor, partial curve, poor fit
CN(C)C/C=C(/c1ccc(Br)cc1)c1cccnc1 | CP211 | 0.0478 | inhibitor, full curve, poor fit
CN(C)C/C=C(/c1ccc(Br)cc1)c1cccnc1 | parasite line B | 11.22 | inhibitor, single point
CN(C)C/C=C(/c1ccc(Br)cc1)c1cccnc1 | CP191 | 11.22 | inhibitor, single point
CN(C)C/C=C(/c1ccc(Br)cc1)c1cccnc1 | ICS | 10 | inhibitor, partial curve
CN(C)C/C=C(/c1ccc(Br)cc1)c1cccnc1 | CP297 | 16.94 | inhibitor, partial curve
CN(C)C/C=C(/c1ccc(Br)cc1)c1cccnc1 | AS120 | 10 | inhibitor, partial curve
CN(C)C/C=C(/c1ccc(Br)cc1)c1cccnc1 | TAB109 | 15.85 | inhibitor, single point
CN(C)C/C=C(/c1ccc(Br)cc1)c1cccnc1 | DIV14 | 15.1 | inhibitor, single point

The last 6 entries again:

CN(C)C/C=C(/c1ccc(Br)cc1)c1cccnc1 [CP191] read fitted potency 11.22 µM (inhibitor, single point).
CN(C)C/C=C(/c1ccc(Br)cc1)c1cccnc1 [ICS] read fitted potency 10 µM (inhibitor, partial curve).
CN(C)C/C=C(/c1ccc(Br)cc1)c1cccnc1 [CP297] read fitted potency 16.94 µM (inhibitor, partial curve).
CN(C)C/C=C(/c1ccc(Br)cc1)c1cccnc1 [AS120] read fitted potency 10 µM (inhibitor, partial curve).
CN(C)C/C=C(/c1ccc(Br)cc1)c1cccnc1 [TAB109] read fitted potency 15.85 µM (inhibitor, single point).
CN(C)C/C=C(/c1ccc(Br)cc1)c1cccnc1 [DIV14] read fitted potency 15.1 µM (inhibitor, single point).

Source: PubChem BioAssay AID504749 (NCATS, 2011).